# Primary screen of a compound library

From ChEMBL document CHEMBL3988442, “University of Dundee, Small-Polar-MMV Screening Library” (2021).

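Phenotypic screen: M. tuberculosis growth, cholesterol and DPPC medium, 4 days; the read-out is not stated. Tested at 50 µM. Direction is inferred from retests: higher values go with more growth inhibition. About 69,000 compounds were tested under these conditions; 0.54% (about 370) showed 50% or more at least once.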

Each number is a percent effect as filed.
The controls that fix the scale are not given in the record; negative values are as filed.
The compounds are a random part of those screened.
Two or more numbers in one place are separate tests of the same structure; such repeats can differ widely.

- CC(=O)N(C)Cc1ncn2c1CN(C(=O)CC1CC1)CCC2 : -7.128%
- CCn1nc(C(C)C)cc1C(=O)NCC1CCCN(c2ccccn2)C1 (stereo unspecified) : 10.81%
- COC(CNC(=O)c1ccoc1)c1cccc(Cl)c1 (stereo unspecified) : 11.78%
- N#Cc1ccc(CS(=O)(=O)NC(=O)c2ccc(C#N)cc2)cc1 : -9.182%
- Cc1ccccc1N1CC(c2nnc(N)s2)CC1=O (stereo unspecified) : 0.4351%
- Cc1ccc(-c2cc(N)c(=O)n(CC(=O)NCC3CCCCC3)n2)s1 : -19.58%
- CC(C)Cc1noc(CN2CCN(CCOc3ccc(Cl)cc3)CC2)n1 : 17.16%
- [H][C@@]12CN(CC3CCOCC3)C[C@]1([H])OCCN2c1ccnc(N(C)C)n1 : 1.749%
- CC1CCCCN1CCNC(=O)c1ccn(-c2ccc(F)cc2)n1 (stereo unspecified) : -18.01%
- CCc1cccc(NC(=O)CNc2ccccc2OCCC(=O)OC)c1 : -15.54%
- COc1ccc(C2CCCN2c2nnc(C)s2)c(OC)c1 (stereo unspecified) : -6.923%
- O=C(Nc1ccc(F)cc1F)NC1(CO)CCOCC1 : 1.57%
- CC1(C)CNC(=O)c2nc(C3CCN(C(=O)C4CC4)CC3)[nH]c2C1 : -2.159%
- N#Cc1ccc(C(=O)N(Cc2ccncc2)C2CC2)cc1 : 10.64%
- Cn1cnc2c1CCN(CCCc1ccccc1)C2 : -4.066%
- NC1CCCCN(Cc2cc(C3CCCCC3)no2)C1 (stereo unspecified) : 14.13% & 5.515%
- O=C(Nc1cn[nH]c1)c1ccc(O)nc1 : -13.61%
- COc1cccc2c1OCC(Cc1ccc(N)nc1C)C2 (stereo unspecified) : -10.91%
- Cc1cc(C(=O)O)cc(S(=O)(=O)Nc2ccc3c(c2)OCCCO3)c1C : -25.89%
- CS(=O)(=O)N1CCC(O)(Cn2c(C3CC3)nc3ccccc3c2=O)CC1 : -21.83%
- Cc1cc(C[C@@H]2CCC[C@H]2NCc2ccccc2F)on1.O=C(O)CC(O)(CC(=O)O)C(=O)O : 11.13%
- CC(C)COC(=O)N1CC(=O)N(Cc2ccc(Cl)cc2)CC(O)C1 (stereo unspecified) : -7.661%
- COc1cc(C(=O)N2CCC(O)(CN3CCOCC3)C(C)(C)C2)ccn1 (stereo unspecified) : -5.608%
- COCCNC(=O)CN1CCN(c2nc3cc(C)ccc3o2)CC1 : 4.03%
- CCCS(=O)(=O)N1CCN(c2ccnc(N3CCCC3)n2)CC1 : 6.239%
- Cc1cccnc1CN1CCN(Cc2ccc(-c3cc[nH]n3)o2)CC1 : -7.253% & -5.954%
- CN1CC(Oc2ccccc2)=NC(SCC(=O)Nc2ccc(Cl)cc2)=N1 : -15.52%
- c1ccc(-n2ccc(CNCC3CCCN3c3cccnn3)n2)cc1 (stereo unspecified) : -1.848%
- COCCOC1CCN(C(=O)NCc2cc(C)oc2C)CC1 : 2.984%

Once more, the final 3:

compound	effect
CN1CC(Oc2ccccc2)=NC(SCC(=O)Nc2ccc(Cl)cc2)=N1	-15.52
c1ccc(-n2ccc(CNCC3CCCN3c3cccnn3)n2)cc1 (stereo unspecified)	-1.848
COCCOC1CCN(C(=O)NCc2cc(C)oc2C)CC1	2.984